Experimental data as given in PubChem BioAssay AID493192 (National Center for Advancing Translational Sciences (NCATS), 2011).
The shares of active, inactive and inconclusive entries below differ from those in the screen. Where the call is inconclusive, the potency comes from a doubtful curve fit. Activity calls are given as the source filed them. The call rests on the fitted dose curve; in most records, active means well fitted activation curve with a large enough effect; inconclusive means small, poorly fitted or top-dose-only effect; inactive means no such curve, though single readings can be large or run the other way.

assay: qHTS Assay for Identifying a Potential Treatment of Ataxia-Telangiectasia: Hit Validation; details: Ataxia-telangiectasia cell-based hit validation qHTS, in ATM-null A-T patient fibroblasts; series mostly up to 76.9 µM;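 further: phospho-KAP1 level by AlphaLISA as a proxy for ATM-like kinase activity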
Text: NIH Chemical Genomics Center [NCGC]
NIH Molecular Libraries Probe Centers Network [MLPCN]
Assay Submitter (PI): Wei Zheng and Yosef Shiloh
Ataxia-telangiectasia (A-T) is a devastating and progressive disease for which, there is no cure. Although A-T is a multisystem disease, it is stereotyped characterized by its neurological symptoms such as truncal ataxia, due to cerebellar cortical degeneration of the Purkinje and granule cells. Other symptoms of A-T are telangiectasias (dilated blood vessels), primary immunodeficiency, marked sensitivity to ionizing radiation (IR), chromosomal instability and predisposition to cancer.
The underlying genetic cause of A-T is null mutations in the ATM (A-T mutated) gene. ATM is a nuclear serine/threonine kinase that functions as a master regulator of the cellular responses to double strand breaks (DSBs) in the DNA. Upon activation by DSBs, ATM phosphorylates a plethora of downstream targets, including KAP-1 on […]. KAP-1 phosphorylation occurs shortly in response to DSBs and mediates global chromatin relaxation, which facilitates DSB repair. To screen for small molecules that will compensate for the loss of ATM in cells derived from A-T patients, we monitored KAP-1 phosphorylation as a readout for ATM-like activity using an AlphaLISA assay.
Step,Parameter,Value,Description
1. Cell Plating, 3 ul, 500 cells/well in OPTI-MEM, 1% FBS, 1% Pen/Strep
3. Library compounds, 23 nl, 76.7 - 0.61uM dilution series final concentration
4. Incubation, 60 min, 37C, 5% CO2, 95% humidity
6. Incubation, 30 min, 37C, 5% CO2, 95% humidity
7. Reagent, 1 ul, Premixed detection reagents and lysis buffer
8. Reagent, 1 ul, 0.6% Antifoam A
9. Incubation, 6 hr, 25C, 95% humidity
10. Readout, EnVision, EnVision plate reader. AlphaScreen 1536-well protocol
Cells were plated using medium-binding white solid-bottom tissue culture treated Kalypsys plates. Multidrop dispense of 3 uL of […] (hTERT immortalized A-T patient fibroblast cells). Detection reagent and lysis buffer was 3.75nM Rab-a-pKAP1 antibody bound to 75 ng/ul AlphaScreen SA donor bead, 3.75 nM Biot-M-a-KAP1 antibody bound to AlphaLISA protein A acceptor bead, 0.5x protease inhibitor cocktail and 0.25x PerkinElmer lysis buffer. EnVision protocol for 1536-well AlphaScreen read (30ms excitation, 100ms read), about 10 min/plate.
Potency means the concentration at half of the fitted maximal effect.

| SMILES | Potency |
| --- | --- |
| O=C(NCc1ccccc1)c1cccnc1Sc1ccccc1 | inconclusive: 26 µM [activator, partial curve] |
| Cc1ccc(C)c(-n2c(SCC(=O)NC(C(=O)O)C(C)C)nnc2-c2cccc(Cl)c2)c1 (stereo not given) | active: 36.8 µM |
| CC1CC(C)CN(S(=O)(=O)c2ccc(C(=O)NCCCn3ccnc3)cc2)C1 (stereo not given) | inactive |
| CN(C)S(=O)(=O)c1cccc(C(=O)N=C2N=C3C=CC(Cl)=CN3Cc3ccccc32)c1 | inconclusive: 29.2 µM [activator, single point] |
| Oc1ccc(-c2nccc(-c3ccc(F)cc3)n2)cc1 | inconclusive: 11.6 µM [activator, full curve] |
| CC1CCCC(C)N1C(=O)COC(=O)Cc1ccc(Cl)cc1 (stereo not given) | inactive |
| COc1cccc(OCCc2c(C)n[nH]c2C)c1 | inconclusive: 6.54 µM [activator, full curve] |
| CCOC(=O)Cn1c(-c2ccccc2)cc(SC)c(C#N)c1=O | inactive |
| O=C(c1cccc(F)c1)N1CCCC(C(=O)N2CCCCCC2)C1 (stereo not given) | active: 29.2 µM |
| COc1cccc(C2C(C(N)=O)=C(C)Nc3nc(CCCO)nn32)c1 (stereo not given) | inconclusive: 36.8 µM [activator, single point] |
| CS(=O)(=O)c1ccc(-c2csc(-c3cccnc3)n2)cc1 | inconclusive: 2.6 µM [activator, full curve, poor fit] |
| COc1ccc(Nc2cc3n(c(=O)n2)CCc2cc(OC)c(OC)cc2-3)cc1 | inconclusive: 32.8 µM [activator, partial curve] |
| COc1ccc(Cl)cc1NC(=O)C[n+]1cccc(C)c1 | inactive |
| Fc1cccc(Cl)c1/C=C/c1cnc2ccccc2n1 | inconclusive: 36.8 µM [activator, single point] |
| CCCCCCCCCn1ccc(=N)cc1 | inconclusive: 7.33 µM [activator, partial curve] |
| CCOc1cc(/C=C/c2nc3ccccc3c(=O)[nH]2)ccc1O | inconclusive: 58.2 µM [activator, single point] |
| C=CCSc1nc2ccccc2n1C(=O)/C=C/c1cc(OC)c(OC)c(OC)c1 | active: 26 µM |
| COc1ccc(C2NC(=S)NC3=C2N2CCC3CC2)cc1 (stereo not given) | active: 0.823 µM |
| CCc1nnc2n1N=C(c1cccc([N+](=O)[O-])c1)CS2 | inconclusive: 58.2 µM [activator, single point] |
| O=C(c1ccc(F)cc1)c1ccc(N2CCCCC2)cc1 | active: 29.2 µM |

| SMILES | Potency |
| --- | --- |
| CN1C[C@@H]2C(c3ccccc3)C3(c4ccccc4)CC2(C3)[C@H]1c1ccccc1 (stereo not given in full) | active: 18.4 µM |
| Cc1c(Cc2ccccc2)c(NCCCO)n2c(nc3ccccc32)c1C#N | inconclusive: 26 µM [activator, partial curve, poor fit] |
| O=C(N/N=C/c1cccc2ccccc12)c1cccnc1 | inconclusive: 29.2 µM [activator, partial curve, poor fit] |
| O=C1CN(C(=O)NCC(=O)N[C@H](C(=O)O)c2ccccc2)c2ccccc2N1 | inactive |
| Cn1c(=O)[nH]c(=O)c2[nH]c(N(Cc3ccccc3)Cc3ccccc3)nc21 | inconclusive: 8.23 µM [activator, full curve] |
| COC(=O)Cc1ccc(NC(=S)NCCSc2ccc(Cl)cc2)cc1 | inconclusive: 29.2 µM [activator, partial curve] |
| Cc1ccc(C(C)C)c(OCCN2CCc3ccccc3C2)c1 | active: 32.8 µM |
| CCOC(=O)c1c(CSc2ccsc2)n(C)c2cc(Br)c(O)c(CN(C)C)c12 | active: 46.3 µM |
| Cn1cc(S(=O)(=O)Nc2ccc(OC(F)(F)F)cc2)c(=O)n(C)c1=O | inconclusive: 18.4 µM [activator, partial curve, poor fit] |
| Cc1cccc(C)c1NC(=O)COC(=O)c1cc(=O)c2ccccc2o1 | inactive |
| CCn1c2ccccc2c2c3ncc4cccn4c3ccc21 | active: 46.3 µM |
| CCNC(=S)N(Cc1cc2cccc(C)c2[nH]c1=O)C1CCCC1 | inconclusive: 58.2 µM [activator, single point] |
| CCc1ccc(C2c3[nH]c4ccccc4c3CCN2C(=O)c2cc[n+]([O-])cc2)cc1 (stereo not given) | inconclusive: 6.54 µM [activator, full curve, poor fit] |
| O=C(Nc1ccc([N+](=O)[O-])cc1)c1cc2ccccc2nc1Cl | inconclusive: 46.3 µM [activator, single point] |
| CC(C)(C=O)C1=CC(=O)c2ccccc2C1=O | active: 20.7 µM |
| Nc1nc2ccccc2cc1-c1cccs1 | inconclusive: 23.2 µM [activator, partial curve] |
| N#CCN1C(=O)C(=O)N(Cc2cccc(Cl)c2)C1=O | inactive |
| Cc1nn(-c2ccccc2)c2nc(C(Cl)(Cl)Cl)[nH]c(=O)c12 | inconclusive: 32.8 µM [activator, single point] |
| Cc1ccc(C(=O)N/C(=C\c2ccco2)C(=O)NC2CCS(=O)(=O)C2)cc1 (stereo not given) | inconclusive: 29.2 µM [activator, partial curve, poor fit] |
| c1ccc2c(c1)nc(Nc1ccc(N3CCCCC3)cc1)c1nncn12 | inconclusive: 58.2 µM [activator, single point] |

Reprinted at random: two entries already listed, in no set order.

| SMILES | Potency |
| --- | --- |
| O=C1CN(C(=O)NCC(=O)N[C@H](C(=O)O)c2ccccc2)c2ccccc2N1 | inactive |
| CC(C)(C=O)C1=CC(=O)c2ccccc2C1=O | active: 20.7 µM |
